Patent publication US20250222065A1, “CYCLIC POLYPEPTIDE FOR THE TREATMENT OF PHA TYPE 1B” (priority 2015, published 2025)
At least one compound was matched to its structure with a doubt left.

Target: T1, αβγG305C hENaC (Homo sapiens, UniProt P37088+P51168+P51170, G305C)
T1 construct: expressed in transfected cells; host or cells: HEK-293
T1 sequence (P37088 1-669): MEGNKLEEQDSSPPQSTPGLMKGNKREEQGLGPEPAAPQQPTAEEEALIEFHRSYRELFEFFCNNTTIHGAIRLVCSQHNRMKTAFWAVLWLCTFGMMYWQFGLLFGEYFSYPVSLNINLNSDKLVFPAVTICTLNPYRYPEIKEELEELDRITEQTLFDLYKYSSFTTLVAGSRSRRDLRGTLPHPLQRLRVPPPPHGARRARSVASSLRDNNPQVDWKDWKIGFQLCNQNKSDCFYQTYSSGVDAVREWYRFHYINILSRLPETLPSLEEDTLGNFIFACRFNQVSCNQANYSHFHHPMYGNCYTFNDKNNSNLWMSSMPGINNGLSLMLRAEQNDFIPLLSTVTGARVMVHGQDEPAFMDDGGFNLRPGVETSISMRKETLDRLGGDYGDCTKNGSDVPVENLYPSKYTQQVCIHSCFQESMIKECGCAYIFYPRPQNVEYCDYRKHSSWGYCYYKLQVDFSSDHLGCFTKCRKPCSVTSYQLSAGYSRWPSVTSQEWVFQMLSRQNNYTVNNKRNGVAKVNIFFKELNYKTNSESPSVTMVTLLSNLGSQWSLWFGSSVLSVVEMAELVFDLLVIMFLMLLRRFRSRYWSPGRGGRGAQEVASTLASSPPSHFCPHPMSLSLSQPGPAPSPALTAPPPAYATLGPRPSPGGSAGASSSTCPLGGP
T1 sequence (P51168 1-640): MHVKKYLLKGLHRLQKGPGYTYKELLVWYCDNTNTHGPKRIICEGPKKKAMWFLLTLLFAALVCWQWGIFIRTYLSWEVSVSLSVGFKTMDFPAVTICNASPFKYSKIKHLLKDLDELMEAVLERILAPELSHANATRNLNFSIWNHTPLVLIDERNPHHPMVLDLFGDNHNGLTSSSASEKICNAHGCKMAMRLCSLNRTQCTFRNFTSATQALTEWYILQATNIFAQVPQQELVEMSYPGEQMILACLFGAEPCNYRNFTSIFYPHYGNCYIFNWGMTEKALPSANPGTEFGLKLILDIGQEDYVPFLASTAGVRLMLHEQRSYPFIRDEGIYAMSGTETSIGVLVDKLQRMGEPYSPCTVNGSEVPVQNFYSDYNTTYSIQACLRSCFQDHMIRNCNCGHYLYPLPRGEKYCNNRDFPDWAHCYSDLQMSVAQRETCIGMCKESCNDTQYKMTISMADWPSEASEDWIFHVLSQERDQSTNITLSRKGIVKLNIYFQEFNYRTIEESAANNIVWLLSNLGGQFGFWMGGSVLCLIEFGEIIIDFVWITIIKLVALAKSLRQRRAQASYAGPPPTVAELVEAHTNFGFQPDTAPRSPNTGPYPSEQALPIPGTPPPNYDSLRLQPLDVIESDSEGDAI
T1 sequence (P51170 1-649 G305C): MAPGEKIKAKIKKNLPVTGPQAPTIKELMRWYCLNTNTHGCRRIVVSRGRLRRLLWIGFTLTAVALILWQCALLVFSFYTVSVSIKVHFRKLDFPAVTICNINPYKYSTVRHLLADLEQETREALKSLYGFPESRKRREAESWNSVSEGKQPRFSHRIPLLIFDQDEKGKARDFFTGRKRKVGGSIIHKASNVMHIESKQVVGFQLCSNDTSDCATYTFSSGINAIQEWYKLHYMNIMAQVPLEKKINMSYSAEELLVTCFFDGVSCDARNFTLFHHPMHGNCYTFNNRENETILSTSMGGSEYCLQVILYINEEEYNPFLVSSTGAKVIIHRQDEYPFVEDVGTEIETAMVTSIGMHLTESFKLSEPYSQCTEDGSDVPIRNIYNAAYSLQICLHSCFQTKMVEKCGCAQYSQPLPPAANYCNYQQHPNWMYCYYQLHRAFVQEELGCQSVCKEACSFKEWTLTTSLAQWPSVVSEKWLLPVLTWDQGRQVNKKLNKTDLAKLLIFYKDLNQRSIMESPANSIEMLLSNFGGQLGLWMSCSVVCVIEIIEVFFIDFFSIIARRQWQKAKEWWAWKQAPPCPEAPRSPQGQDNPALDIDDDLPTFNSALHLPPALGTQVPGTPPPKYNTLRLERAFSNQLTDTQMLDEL
Assay: Whole cell patch clamp, HEK-293 cells expressing mutant αβγG305C-hENaC
Assay type: cell-based
Conditions: HEK-293, whole cell patch clamp; no-peptide current: loss-of-function

C[C@@H]1NC(=O)CNC(=O)[C@H](CCC(=O)O)NC(=O)[C@@H]2CCCN2C(=O)[C@H]([C@@H](C)O)NC(=O)[C@H](CCC(=O)O)NC(=O)[C@H](CCCNC(=N)N)NC(=O)[C@H](CCC(N)=O)NC(=O)CNC(=O)[C@@H](N)CSSC[C@@H](C(=O)O)NC(=O)[C@H](Cc2ccc(O)cc2)NC(=O)[C@H](Cc2c[nH]c3ccccc23)NC(=O)[C@@H]2CCCN2C(=O)[C@H](CCCCN)NC(=O)[C@H](C)NC(=O)[C@H](CCC(=O)O)NC1=O [AP301]
AP301 restored Na+ current: 125.5 ± 15.7 pA
